Assay: Organoleptic acceptability of treated meat

O=C/C=C/c1ccccc1 [Trans-cinnamaldehyde, trans-cinnamaldehyde]
smell and taste (trans-cinnamaldehyde […] on the chicken breast): acceptable
effect on the organoleptic qualities of ground beef (trans-cinnamaldehyde […], preliminary experiments): did not affect the organoleptic qualities

Reference: patent US20050118310A1, “Formulations of compounds derived from natural sources and their use with irradiation for food preservation” (priority 2001, published 2005)
